Here are results for 1 substance from publication PMC10516952.

Sequences of proteins named here, by UniProt entry; tags and fusion partners are left off. A change or cut given only in a name is not applied to a line headed by its entry.
UniProt P49019: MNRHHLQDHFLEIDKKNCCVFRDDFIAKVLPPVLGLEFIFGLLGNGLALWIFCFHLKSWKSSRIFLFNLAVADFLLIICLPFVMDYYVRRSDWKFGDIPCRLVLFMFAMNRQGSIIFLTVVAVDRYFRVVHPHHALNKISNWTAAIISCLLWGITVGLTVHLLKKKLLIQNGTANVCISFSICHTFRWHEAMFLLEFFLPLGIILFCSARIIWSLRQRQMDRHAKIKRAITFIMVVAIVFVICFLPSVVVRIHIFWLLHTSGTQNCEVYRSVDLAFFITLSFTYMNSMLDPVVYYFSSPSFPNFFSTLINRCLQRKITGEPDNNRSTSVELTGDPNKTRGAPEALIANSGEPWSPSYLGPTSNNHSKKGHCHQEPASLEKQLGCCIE
UniProt P63096: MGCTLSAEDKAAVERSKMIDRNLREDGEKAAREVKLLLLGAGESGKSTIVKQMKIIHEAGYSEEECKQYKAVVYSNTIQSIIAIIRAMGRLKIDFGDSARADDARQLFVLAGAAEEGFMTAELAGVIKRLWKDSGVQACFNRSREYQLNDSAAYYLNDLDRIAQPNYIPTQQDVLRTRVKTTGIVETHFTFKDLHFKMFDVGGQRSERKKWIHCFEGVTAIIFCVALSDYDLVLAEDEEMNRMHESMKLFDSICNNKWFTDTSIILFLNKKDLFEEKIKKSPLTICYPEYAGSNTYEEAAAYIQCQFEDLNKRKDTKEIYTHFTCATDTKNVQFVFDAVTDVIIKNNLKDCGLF

These are yes or no findings as the source states them, for the method shown. Some binding calls cover weakened binding; strength is not graded here.

The assay addresses Human HCA3 (residues 1–387) with N-terminal HA signal peptide, FLAG-tag and bRIL (human) (UniProt P49019). Briefly: cryo-EM structure; receptor, Gi, Gβγ and scFv16 co-expressed in Sf9; complex purified on M2 FLAG resin and Superose 6 in LMNG/GDN/CHS, 20 mM HEPES pH 7.5, 100 mM NaCl, with agonist throughout (HCA2: GSK256073, MK6892, LUF6283 or acifran; HCA3: acifran); single-particle cryo-EM; both purified.

“Gαi1 (Gi) with 2 dominant-negative mutations (G203A, A326S) (from UniProt P63096 1-354)”: the binding entry was “binds”.
